# Assay results from the supplement of paper PMC8728848.
# This is one part of the list.
# B1: RetS (Pseudomonas aeruginosa), Q9HUV7 (protein)
# chain: MVRLRIAIGLLVSFLLLLLGPMSPAVADDAGVSSVPLQTTATTPSANQNWRLLRDESAQLRIADVLQRKEQFRPLAKRSFIFPASPQAVWLQVQLPAQKVPSWLWIFAPRVQYLDYYLVQDGQLVRDQHTGESRPFQERPLPSRSYLFSLPVDGKPMTLYVRMTSNHPLMAWFDQIDEAGLVGLEKPAYAFGMLLGGMLLLLMYNLIRFAYSRSASSLWLAAVHAALAVCAAANLGLVAFWLPGLKFNQSLTADLGALGAAVSLLWFACSFFRGTAESRLNRLLQGEALLILAVGAIIAFTQQLWFSWLIYLLVILSSLSVPLIAAWHWYRGYQPARLIVAGMIVFNAGFMVFLPVLFGTKQLDPGWLVLGVFSFATLAGLVLSVSLTERQRLIQQLNLQQRTSEAAHTAELQTKAEFLAKISHEIRTPMNGVLGMTELLLGTPLSAKQRDYVQTIHSAGNELLTLINEILDISKLESGQIELDEVQFDLNALIEDCLDIFRVKAEQQRIELISFTQPQVPRVIGGDPTRLRQVVLSLLDNAFKQTEEGEILLVVALDDQGETPRLRIAVQDSGHPFDAKEREALLTAELHSGDFLSASKLGSHLGLIIARQLVRLMGGEFGIQSGSSQGTTLSLTLPLDPQQLENPTADLDGPLQGARLLVVDDNETCRKVLVQQCSGWGLNVSAVSSGKEALAQLRTKAHLREYFDVVLLDQDMPGMTGMQLAAKIKEDPNLNHDILLIMLTGISNAPSKIIARNAGIKRILAKPVAGYTLKATLADELAQRGVSGVTNYLQPAKEAQAPSLPSDFRILVAEDNSISTKVIRGMLNKLNLQPDTASNGQEALSAMKATQYDLVLMDCEMPVLDGFSATEQLRAWEAHEQRPHTPVVALTAHILSEHKERARLVGMDGHMAKPVELSQLRELIAYWVGERDRRRQGDALPS
# Tests used:
# Assay in all cases: glycan array binding signal (z-score within array); higher = stronger binding
# Details in all cases: glycan notation: IUPAC condensed, linker removed
# [1] = target: Gal(b1-4)GlcNAc(b1-2)Man(a1-3)[Gal(b1-4)GlcNAc(b1-2)Man(a1-6)]Man(b1-4)GlcNAc(b1-4)GlcNAc
# Summary of the method: (§1)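 The Consortium for Functional Glycomics database supplied 3228 glycan arrays, of which those lacking an available protein sequence were dropped. The binding signal, a within-array Z-score, was averaged across arrays of the same protein sequence and across linkers. Negative scores can be read as non-binding.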
# [2] = target: Gal(b1-4)GlcNAc(b1-2)Man(a1-3)[Gal(b1-4)GlcNAc(b1-2)Man(a1-6)]Man(b1-4)GlcNAc(b1-4)[Fuc(a1-6)]GlcNAc
# Summary of the method: as §1
# [3] = target: Gal(b1-4)GlcNAc(b1-2)Man(a1-3)[Gal(b1-4)GlcNAc(b1-2)][GlcNAc(b1-4)]Man(b1-4)GlcNAc(b1-4)GlcNAc
# Summary of the method: as §1
# [4] = target: Gal(b1-4)GlcNAc(b1-2)Man(a1-3)[GlcNAc(b1-2)Man(a1-6)]Man(b1-4)GlcNAc(b1-4)GlcNAc
# Summary of the method: as §1
# [5] = target: Gal(b1-4)GlcNAc(b1-2)Man(a1-3)[Man(a1-6)]Man(b1-4)GlcNAc(b1-4)GlcNAc
# Summary of the method: as §1
# [6] = target: Gal(b1-4)GlcNAc(b1-2)Man(a1-6)Man(b1-4)GlcNAc(b1-4)GlcNAc
# Summary of the method: as §1
# [7] = target: Gal(b1-4)GlcNAc(b1-2)Man(a1-6)[GlcNAc(b1-2)Man(a1-3)]Man(b1-4)GlcNAc(b1-4)GlcNAc
# Summary of the method: as §1
# [8] = target: Gal(b1-4)GlcNAc(b1-2)Man(a1-6)[Man(a1-3)]Man(b1-4)GlcNAc(b1-4)GlcNAc
# Summary of the method: as §1
# [9] = target: Gal(b1-4)GlcNAc(b1-2)[Gal(b1-4)GlcNAc(b1-4)]Man(a1-3)[Gal(b1-4)GlcNAc(b1-2)Man(a1-6)]Man(b1-4)GlcNAc(b1-4)GlcNAc
# Summary of the method: as §1
# [10] = target: Gal(b1-4)GlcNAc(b1-2)[Gal(b1-4)GlcNAc(b1-4)]Man(a1-3)[Gal(b1-4)GlcNAc(b1-2)[Gal(b1-4)GlcNAc(b1-6)]Man(a1-6)]Man(b1-4)GlcNAc(b1-4)GlcNAc
# Summary of the method: as §1
# [11] = target: Gal(b1-4)GlcNAc(b1-2)[Gal(b1-4)GlcNAc(b1-4)]Man(a1-3)[GlcNAc(b1-4)][Gal(b1-4)GlcNAc(b1-2)Man(a1-6)]Man(b1-4)GlcNAc(b1-4)GlcNAc
# Summary of the method: as §1
# [12] = target: Gal(b1-4)GlcNAc(b1-2)[Gal(b1-4)GlcNAc(b1-4)]Man(a1-3)[GlcNAc(b1-4)][Gal(b1-4)GlcNAc(b1-2)[Gal(b1-4)GlcNAc(b1-6)]Man(a1-6)]Man(b1-4)GlcNAc(b1-4)GlcNAc
# Summary of the method: as §1
# [13] = target: Gal(b1-4)GlcNAc(b1-2)[Gal(b1-4)GlcNAc(b1-6)]Man(a1-6)[Gal(b1-4)GlcNAc(b1-2)Man(a1-3)]Man(b1-4)GlcNAc(b1-4)GlcNAc
# Summary of the method: as §1
# [14] = target: Gal(b1-4)GlcNAc(b1-2)[Gal(b1-4)GlcNAc(b1-6)]Man(a1-6)[GlcNAc(b1-4)][Gal(b1-4)GlcNAc(b1-2)Man(a1-3)]Man(b1-4)GlcNAc(b1-4)GlcNAc
# Summary of the method: as §1
# [15] = target: Gal(b1-4)GlcNAc(b1-3)Gal(b1-3)GlcNAc
# Summary of the method: as §1
# [16] = target: Gal(b1-4)GlcNAc(b1-3)Gal(b1-4)Glc
# Summary of the method: as §1
# [17] = target: Gal(b1-4)GlcNAc(b1-3)Gal(b1-4)GlcNAc
# Summary of the method: as §1
# [18] = target: Gal(b1-4)GlcNAc(b1-3)Gal(b1-4)GlcNAc(b1-3)Gal(b1-4)GlcNAc
# Summary of the method: as §1
# [19] = target: Gal(b1-4)GlcNAc(b1-3)Gal(b1-4)[Fuc(a1-3)GlcNAc(b1-6)]Gal(b1-4)Glc
# Summary of the method: as §1
# [20] = target: Gal(b1-4)GlcNAc(b1-3)Gal(b1-4)[Fuc(a1-3)]GlcNAc(b1-3)Gal(b1-4)[Fuc(a1-3)]GlcNAc
# Summary of the method: as §1
# [21] = target: Gal(b1-4)GlcNAc(b1-3)GalNAc
# Summary of the method: as §1
# [22] = target: Gal(b1-4)GlcNAc(b1-3)[Gal(b1-4)GlcNAc(b1-6)]Gal(b1-4)GlcNAc
# Summary of the method: as §1
# [23] = target: Gal(b1-4)GlcNAc(b1-3)[Gal(b1-4)GlcNAc(b1-6)]GalNAc
# Summary of the method: as §1
# [24] = target: Gal(b1-4)GlcNAc(b1-3)[GlcNAc(b1-6)]Gal(b1-4)GlcNAc
# Summary of the method: as §1
# [25] = target: Gal(b1-4)GlcNAc(b1-6)Gal(b1-4)GlcNAc
# Summary of the method: as §1
# [26] = target: Gal(b1-4)GlcNAc(b1-6)GalNAc
# Summary of the method: as §1
# [27] = target: Gal(b1-4)GlcNAc(b1-6)[Gal(b1-3)]GalNAc
# Summary of the method: as §1
# Gal(b1-6)Gal = target: Gal(b1-6)Gal
# Summary of the method: as §1
# Gal3S(b1-3)GalNAc = target: Gal3S(b1-3)GalNAc
# Summary of the method: as §1
# Gal3S(b1-3)GlcNAc = target: Gal3S(b1-3)GlcNAc
# Summary of the method: as §1
binder,measurement,setting,value
B1,glycan array binding signal (z-score),[1],-0.891
same,glycan array binding signal (z-score),[2],1.97
same,glycan array binding signal (z-score),[3],1.38
same,glycan array binding signal (z-score),[4],2.37
same,glycan array binding signal (z-score),[5],-0.317
same,glycan array binding signal (z-score),[6],-0.932
same,glycan array binding signal (z-score),[7],0.441
same,glycan array binding signal (z-score),[8],-0.39
same,glycan array binding signal (z-score),[9],-0.305
same,glycan array binding signal (z-score),[10],0.39
same,glycan array binding signal (z-score),[11],0.172
same,glycan array binding signal (z-score),[12],0.46
same,glycan array binding signal (z-score),[13],1.43
same,glycan array binding signal (z-score),[14],-2.35
same,glycan array binding signal (z-score),[15],0.908
same,glycan array binding signal (z-score),[16],-0.391
same,glycan array binding signal (z-score),[17],-1.4
same,glycan array binding signal (z-score),[18],-0.266
same,glycan array binding signal (z-score),[19],-0.73
same,glycan array binding signal (z-score),[20],-0.725
same,glycan array binding signal (z-score),[21],-0.104
same,glycan array binding signal (z-score),[22],-1.17
same,glycan array binding signal (z-score),[23],-0.009
same,glycan array binding signal (z-score),[24],-0.037
same,glycan array binding signal (z-score),[25],0.147
same,glycan array binding signal (z-score),[26],-0.198
same,glycan array binding signal (z-score),[27],0
same,glycan array binding signal (z-score),Gal(b1-6)Gal,0.844
same,glycan array binding signal (z-score),Gal3S(b1-3)GalNAc,0.755
same,glycan array binding signal (z-score),Gal3S(b1-3)GlcNAc,-0.199

# As a short view, some entries already given.
binder,measurement,setting,value
B1,glycan array binding signal (z-score),[12],0.46
same,glycan array binding signal (z-score),[13],1.43
